The text below walks through data of PubChem BioAssay AID1487 (National Center for Advancing Translational Sciences (NCATS), 2009).

This is one part of the list. These are further read-outs of the screen, such as a control signal, another cell line or another target. No call is given for them. Most of these compounds were active or inconclusive in the main read-out, so they are no random draw. Potencies come from curve fits of mixed quality, noted in brackets.

The assay is described as follows: qHTS Assay for Modulators of Lamin A Splicing. Conditions: HeLa LMNA splicing GFP/RFP minigene ratio, 48 h. A digest of the protocol:
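Read-out is the ratio of GFP to DsRed2 object intensity, acquired by 488 nm laser-scanning cytometry on HeLa lamin A-EGFP minigene reporter cells. Compound incubation 48 hrs at 37 °C in Opti-MEM with 2% FBS; DMSO 0.5% final.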

[1] abbreviates: measured here: RFP viability control channel.
Where [2] appears, read: measured here: GFP splicing reporter channel.

For `O=C(CSc1ncnc2nc[nH]c12)Nc1nnc(SCc2ccc(Cl)c(Cl)c2)s1`, the AC50 under setting [1] was 12.6 µM [falling, single point]. Take `CCn1nc(C)c(NC(=O)CC23CC4CC(CC(C4)C2)C3)c1C`: the concentration at half-maximal activity (AC50) under setting [1] is 17.8 µM [rising, single point].

`CCCCc1nn2c(=O)cc(COC(=O)c3ccc(NC(=O)c4ccccc4Cl)cc3)nc2s1`: under setting [1], the AC50 is 35.5 µM [falling, single point]. Consider `O=C(Nc1nc(-c2ccc(Cl)s2)cs1)c1ccccc1`, for which the half-maximal activity concentration (AC50) is, setting by setting: under setting [2], 35.5 µM [rising, single point]; under setting [1], 35.5 µM [rising, single point]. For `CCN(CC)S(=O)(=O)c1ccc(N/N=C/c2cc(OC)c(OC)cc2OC)nc1`, the AC50 under setting [1] is 31.6 µM [rising, single point]. Take `Cc1cccc(OCCc2nnc(N)s2)c1C`: the concentration at half-maximal activity (AC50) under setting [2] was 15.8 µM [rising, single point]. With `NNc1nc2sc3c(c2c(=O)[nH]1)CCc1ccccc1-3`, the concentration at half-maximal activity (AC50) under setting [1] was 7.08 µM [rising, partial curve].

Consider `COc1cccc(-c2cncnc2NCc2cccs2)c1`, for which the AC50 is 20 µM [falling, partial curve] under setting [2] and 12.6 µM [falling, partial curve] under setting [1]. For the compound `Cc1cccc(N(CC(=O)N2CCN(c3ccc(F)cc3)CC2)S(C)(=O)=O)c1C`, the AC50 under setting [2] was 3.16 µM [rising, single point]. On to `Cc1ccc(Br)cc1S(=O)(=O)N1CCN(c2ccccc2)CC1`, for which the half-maximal activity concentration (AC50) under setting [2] was 35.5 µM [rising, single point]. Regarding `O=C(c1ccccc1)N(Cc1ccc(F)cc1)C1CCS(=O)(=O)C1` (centres undefined), the AC50 under setting [1] is 5.62 µM [rising, single point]. In the case of `COc1ccc(CSc2nc(CSC)cc(N3CCOCC3)n2)cc1`, the half-maximal activity concentration (AC50) under setting [2] is 31.6 µM [rising, single point]. Turning to `Cc1cc(C)c2c(N)c(C(=O)c3ccc(Cl)cc3)sc2n1`, the AC50 under setting [2] was 17.8 µM [rising, single point].

`CCS(=O)(=O)N1Cc2ccccc2CC1C(=O)Nc1nnc(SCc2ccc(C#N)cc2)s1` (centres undefined): the AC50 by setting is: under setting [2], 0.00891 µM [rising, full curve, poor fit]; under setting [1], 25.1 µM [rising, partial curve].

With `CCOC(=O)c1cc2c(=O)n3ccccc3nc2n(Cc2ccco2)c1=NC(=O)c1cccnc1`, the half-maximal activity concentration (AC50) under setting [1] is 0.562 µM [falling, full curve]. Turning to `COCCNc1nnc(SCC(=O)Nc2sc3c(c2C(=O)c2ccccc2)CCCC3)s1`, the AC50 by setting is: under setting [2], 31.6 µM [rising, single point]; under setting [1], 35.5 µM [rising, single point]. In the case of `O=C(CSc1nnc(COc2ccc(Cl)cc2)n1Cc1ccco1)c1ccccc1F`, under setting [1], the AC50 is 3.55 µM [rising, full curve].

Regarding `COC(=O)c1nc(NC(=O)C(C)C)n[nH]1`, the AC50 under setting [1] is 11.2 µM [rising, single point].

Consider `Cc1ccc(C)c(S(=O)(=O)N2CCN(Cc3ccc(O)c4ncccc34)CC2)c1`, for which the AC50 under setting [1] is 25.1 µM [rising, single point]. Take `O=C(NCc1ccccc1)NC1(C(=O)N2CCN(c3ccccc3)CC2)CCCCC1`: the AC50 under setting [1] is 35.5 µM [rising, single point]. Take `C=CCSc1nnc(CCCCCN2C(=O)c3cccc4cccc(c34)C2=O)o1`: the AC50 was 12.6 µM [rising, partial curve, poor fit] under setting [2] and 15.8 µM [rising, partial curve] under setting [1]. `CC(C(=O)Nc1ccc2c(c1)OCCO2)c1ccc([N+](=O)[O-])cc1` (centres undefined): under setting [2], the concentration at half-maximal activity (AC50) was 1.41 µM [falling, partial curve, poor fit].

Take `COc1ccc(CCNS(=O)(=O)c2ccc3c(c2)CC(C)N3C(=O)C2CCC2)cc1OC` (centres undefined): the AC50 reads like this: under setting [2], 0.891 µM [falling, full curve, poor fit]; under setting [1], 1 µM [falling, partial curve].

For `CCOC(=O)c1ccc(N2C(=O)c3n[nH]c(C)c3C2c2ccco2)cc1` (centres undefined), the half-maximal activity concentration (AC50) under setting [1] was 2.82 µM [rising, single point].

Regarding `Cc1nn(Cc2ccc(Cl)cc2)c(C)c1NC(=O)C(c1ccccc1)c1ccccc1`, the half-maximal activity concentration (AC50) under setting [1] is 20 µM [rising, partial curve, poor fit].

Consider `COc1ccc(-c2nc(C#N)c(N3CCN(c4cccc(Cl)c4)CC3)o2)cc1OC`, for which the concentration at half-maximal activity (AC50) under setting [1] was 35.5 µM [rising, single point]. In the case of `Cc1nnc(-c2ccccc2)c(=O)n1/N=C/c1c(O)ccc2ccccc12`, the AC50 was 3.55 µM [falling, full curve] under setting [2] and 5.62 µM [falling, single point] under setting [1]. In the case of `CCN(CC)c1ccc(NS(=O)(=O)c2ccc(-c3cnc(C4CC4)o3)cc2)c(C)c1`, the AC50 under setting [1] was 10 µM [rising, partial curve]. For `COc1cc(/C=C/C(=O)c2ccc(NS(=O)(=O)c3ccc(C)cc3)cc2)ccc1OC(F)F`, the AC50 is 14.1 µM [falling, single point] under setting [2] and 20 µM [falling, single point] under setting [1].

In the case of `CC(C)OC(=O)c1cc(-c2ccc(C=O)o2)ccc1Cl`, the AC50 under setting [1] was 35.5 µM [rising, single point].

Consider `CCOc1ccc(CCNC(=O)c2sc3nc4n(c(=O)c3c2C)CCCC4)cc1OCC`, for which, under setting [2], the AC50 is 1 µM [rising, full curve, poor fit].

Consider `O=C(COc1ccc(Cl)cc1Cl)NCc1ccncc1`, for which the AC50 under setting [1] is 12.6 µM [rising, single point]. In the case of `COc1ccc(-n2c(SCC(=O)Nc3ccc(Cl)c(C)c3)nc3n[nH]c(C)c3c2=N)cc1`, under setting [2], the AC50 is 35.5 µM [falling, single point]. For the compound `C=CCc1cccc(/C=N/NC(=O)CCC(=O)Nc2ccc(C)cc2)c1O`, the AC50 under setting [1] is 11.2 µM [rising, partial curve, poor fit]. Regarding `CCCCN(CCCC)S(=O)(=O)c1ccc(NC(=O)c2cccs2)cc1`, the AC50 reads like this: under setting [2], 15.8 µM [rising, single point]; under setting [1], 35.5 µM [rising, single point]. As to `O=C(Nc1nc2ccc(S(=O)(=O)N3CCCC3)cc2s1)c1cccc(F)c1`, the concentration at half-maximal activity (AC50) under setting [1] is 0.0224 µM [rising, full curve, poor fit]. Take `Cc1cc(C)cc(-n2ccnc2SCC(=O)Nc2nnc(C)s2)c1`: the concentration at half-maximal activity (AC50) under setting [1] was 12.6 µM [rising, partial curve]. In the case of `CCN1CC(CN(C)Cc2cn(-c3ccc(C)cc3)nc2-c2cccc(C)c2)CC1=O` (centres undefined), the AC50 under setting [2] is 4.47 µM [falling, full curve] and the AC50 under setting [1] was 8.91 µM [falling, partial curve, poor fit]. Take `Cc1cc(C)n(-c2nnc(C)n2/N=C/c2ccccc2O)n1`: the concentration at half-maximal activity (AC50) is 5.62 µM [falling, single point] under setting [2] and 5.62 µM [falling, single point] under setting [1]. Take `O=C(O)CCNC(=O)c1ccc(Br)o1`: the concentration at half-maximal activity (AC50) under setting [1] was 4.47 µM [rising, partial curve, poor fit]. With `COc1ccc(-c2nc3sc(CCNC(=O)c4cc(OC)c(OC)c(OC)c4)c(C)n3n2)cc1`, the half-maximal activity concentration (AC50) runs as follows: under setting [2], 7.08 µM [falling, partial curve, poor fit]; under setting [1], 0.112 µM [falling, full curve, poor fit]. `CCn1c2ccccc2c2cc(NC(=O)COC(=O)c3cc(S(=O)(=O)N4CCCCC4)ccc3Cl)ccc21`: the AC50 under setting [2] was 35.5 µM [rising, single point] and the concentration at half-maximal activity (AC50) under setting [1] is 35.5 µM [rising, single point]. For `O=C(CSC1=Nc2ccccc2C2=NC(CC(=O)NC3CCCCC3)C(=O)N12)Nc1ccc(F)cc1` (centres undefined), the concentration at half-maximal activity (AC50) under setting [1] was 35.5 µM [rising, single point]. For the compound `COC(=O)c1cc(NS(=O)(=O)c2ccc(OC)c(OC)c2)ccc1Cl`, the AC50 under setting [1] was 15.8 µM [rising, partial curve]. Regarding `CCOc1cc(CO)cc(Br)c1OCC(=O)Nc1ccccc1C`, the half-maximal activity concentration (AC50) under setting [1] was 0.0126 µM [falling, full curve, poor fit]. As to `COc1cc2nc(N(C)CCCNC(=O)[C@@H]3CCCO3)nc(N)c2cc1OC`, the AC50 is, setting by setting: under setting [2], 0.002 µM [falling, full curve]; under setting [1], 0.00178 µM [falling, full curve, poor fit].

On to `CC(C)(C)c1nc2cc(Cl)c([N+](=O)[O-])cc2o1`, for which, under setting [1], the half-maximal activity concentration (AC50) is 6.31 µM [falling, single point]. As for `CCCCCCCN=CC1=C(O)CC(c2ccccc2)CC1=O` (centres undefined), the concentration at half-maximal activity (AC50) under setting [1] is 0.141 µM [falling, full curve, poor fit].

As for `Cc1[nH]n(-c2ccccc2)c(=O)c1C(C[N+](=O)[O-])c1ccc(F)cc1` (centres undefined), the concentration at half-maximal activity (AC50) by setting is: under setting [2], 25.1 µM [rising, single point]; under setting [1], 12.6 µM [rising, single point].

For the compound `CCCS(=O)(=O)N1CCN(Cc2ccco2)CC1`, the AC50 under setting [1] was 5.62 µM [rising, single point].

As to `CCOc1ccc(C2c3[nH]c4ccccc4c3CCN2C(=O)CCc2ccccc2)cc1` (centres undefined), the AC50 is 0.891 µM [falling, full curve, poor fit] under setting [2] and 35.5 µM [rising, single point] under setting [1].

Consider `Cc1cc(C(=O)CSc2nn3c(=O)c(C(C)(C)C)nnc3s2)c(C)n1-c1ccc(F)cc1`, for which the AC50 under setting [2] is 10 µM [rising, partial curve, poor fit]. In the case of `N#Cc1c(SCc2ccc(Cl)cc2)sc(C(=O)c2ccccc2)c1N`, the AC50 under setting [2] was 12.6 µM [rising, single point]. Regarding `O=C(c1cnn(C(=O)c2cccc(S(=O)(=O)N3CCOCC3)c2)c1)c1cc(Cl)cc(Cl)c1O`, the concentration at half-maximal activity (AC50) is 10 µM [falling, partial curve] under setting [2] and 7.08 µM [falling, partial curve] under setting [1]. For `O=C(NCc1ccco1)C1CCN(C(=O)N2CCOc3ccccc32)CC1`, the concentration at half-maximal activity (AC50) under setting [1] was 0.00316 µM [rising, full curve, poor fit]. Turning to `O=[N+]([O-])c1ccc(-c2nc(-c3ccc(F)cc3)c(-c3ccncc3)[nH]2)cc1`, the half-maximal activity concentration (AC50) under setting [2] is 6.31 µM [falling, partial curve] and the half-maximal activity concentration (AC50) under setting [1] is 0.00447 µM [falling, full curve, poor fit].
